Measured values from the supplement of paper PMC10849652.
The list shows a part of the results.

Protein sequences, listed by entry. Tags and fused reporters are not part of them. Lines headed by an entry give the natural chain unless they say otherwise; changes in a name come on top.
UniProt Q13439: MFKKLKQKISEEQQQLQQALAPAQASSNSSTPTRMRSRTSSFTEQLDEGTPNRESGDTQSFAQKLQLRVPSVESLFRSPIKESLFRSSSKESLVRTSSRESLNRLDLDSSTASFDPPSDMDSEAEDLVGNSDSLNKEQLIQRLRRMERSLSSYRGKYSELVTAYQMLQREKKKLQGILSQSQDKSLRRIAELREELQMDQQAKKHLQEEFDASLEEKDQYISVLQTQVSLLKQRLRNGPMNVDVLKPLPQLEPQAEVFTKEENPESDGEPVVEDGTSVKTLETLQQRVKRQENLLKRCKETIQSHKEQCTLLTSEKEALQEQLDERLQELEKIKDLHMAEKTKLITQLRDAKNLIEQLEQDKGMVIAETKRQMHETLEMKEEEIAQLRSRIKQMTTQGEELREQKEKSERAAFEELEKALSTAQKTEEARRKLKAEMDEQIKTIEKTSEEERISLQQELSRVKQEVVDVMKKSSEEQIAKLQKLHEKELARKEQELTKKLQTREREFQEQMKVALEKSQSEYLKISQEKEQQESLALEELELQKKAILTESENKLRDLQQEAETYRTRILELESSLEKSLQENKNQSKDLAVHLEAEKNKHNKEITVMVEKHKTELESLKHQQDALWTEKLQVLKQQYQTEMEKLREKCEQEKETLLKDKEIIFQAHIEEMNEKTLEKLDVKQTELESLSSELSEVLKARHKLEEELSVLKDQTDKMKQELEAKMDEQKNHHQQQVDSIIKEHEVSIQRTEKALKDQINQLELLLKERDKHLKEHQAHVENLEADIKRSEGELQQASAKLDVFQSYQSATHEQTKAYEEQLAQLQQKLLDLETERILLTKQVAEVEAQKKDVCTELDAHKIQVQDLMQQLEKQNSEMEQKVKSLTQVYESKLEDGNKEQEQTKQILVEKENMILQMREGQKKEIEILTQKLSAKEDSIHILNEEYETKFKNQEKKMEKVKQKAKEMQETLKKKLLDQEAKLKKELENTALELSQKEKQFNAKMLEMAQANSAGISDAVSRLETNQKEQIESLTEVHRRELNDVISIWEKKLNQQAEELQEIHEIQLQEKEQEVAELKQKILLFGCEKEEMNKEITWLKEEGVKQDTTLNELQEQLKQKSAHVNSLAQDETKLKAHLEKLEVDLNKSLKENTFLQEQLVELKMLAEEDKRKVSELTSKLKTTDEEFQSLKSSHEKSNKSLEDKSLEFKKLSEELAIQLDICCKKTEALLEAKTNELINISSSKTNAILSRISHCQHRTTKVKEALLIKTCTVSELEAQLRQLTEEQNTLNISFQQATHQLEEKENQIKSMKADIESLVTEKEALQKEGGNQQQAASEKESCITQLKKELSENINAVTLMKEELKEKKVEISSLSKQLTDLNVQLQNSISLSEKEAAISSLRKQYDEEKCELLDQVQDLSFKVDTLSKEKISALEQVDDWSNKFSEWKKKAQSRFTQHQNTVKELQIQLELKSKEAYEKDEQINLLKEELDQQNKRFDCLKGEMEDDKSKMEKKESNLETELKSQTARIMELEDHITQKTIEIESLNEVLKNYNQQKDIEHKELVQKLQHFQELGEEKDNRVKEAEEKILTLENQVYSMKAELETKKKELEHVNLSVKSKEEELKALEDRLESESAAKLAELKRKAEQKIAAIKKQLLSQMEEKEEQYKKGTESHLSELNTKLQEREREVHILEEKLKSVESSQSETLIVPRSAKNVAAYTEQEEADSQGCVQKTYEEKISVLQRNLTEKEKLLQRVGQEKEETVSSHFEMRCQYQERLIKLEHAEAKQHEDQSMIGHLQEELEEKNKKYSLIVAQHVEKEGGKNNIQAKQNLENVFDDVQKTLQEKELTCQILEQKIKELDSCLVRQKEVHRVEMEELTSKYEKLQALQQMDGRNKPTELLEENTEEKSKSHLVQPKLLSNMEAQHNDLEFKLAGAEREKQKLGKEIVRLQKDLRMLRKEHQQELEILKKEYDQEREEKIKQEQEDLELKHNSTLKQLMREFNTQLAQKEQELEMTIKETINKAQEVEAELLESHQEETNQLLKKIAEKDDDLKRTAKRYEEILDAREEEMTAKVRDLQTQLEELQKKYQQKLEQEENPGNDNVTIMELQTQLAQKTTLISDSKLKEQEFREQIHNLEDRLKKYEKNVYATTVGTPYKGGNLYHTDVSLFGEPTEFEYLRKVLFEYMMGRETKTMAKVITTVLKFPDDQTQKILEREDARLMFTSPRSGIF
UniProt P62873, whole entry, looked up: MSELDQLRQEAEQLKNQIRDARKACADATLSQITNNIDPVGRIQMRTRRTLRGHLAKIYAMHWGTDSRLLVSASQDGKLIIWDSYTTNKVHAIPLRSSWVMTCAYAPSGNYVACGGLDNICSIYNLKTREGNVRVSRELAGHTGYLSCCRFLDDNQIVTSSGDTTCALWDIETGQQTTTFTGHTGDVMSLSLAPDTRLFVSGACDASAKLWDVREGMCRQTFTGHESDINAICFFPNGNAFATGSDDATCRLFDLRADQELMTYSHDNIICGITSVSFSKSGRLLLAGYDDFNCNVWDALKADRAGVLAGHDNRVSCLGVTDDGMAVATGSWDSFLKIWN
UniProt P38435: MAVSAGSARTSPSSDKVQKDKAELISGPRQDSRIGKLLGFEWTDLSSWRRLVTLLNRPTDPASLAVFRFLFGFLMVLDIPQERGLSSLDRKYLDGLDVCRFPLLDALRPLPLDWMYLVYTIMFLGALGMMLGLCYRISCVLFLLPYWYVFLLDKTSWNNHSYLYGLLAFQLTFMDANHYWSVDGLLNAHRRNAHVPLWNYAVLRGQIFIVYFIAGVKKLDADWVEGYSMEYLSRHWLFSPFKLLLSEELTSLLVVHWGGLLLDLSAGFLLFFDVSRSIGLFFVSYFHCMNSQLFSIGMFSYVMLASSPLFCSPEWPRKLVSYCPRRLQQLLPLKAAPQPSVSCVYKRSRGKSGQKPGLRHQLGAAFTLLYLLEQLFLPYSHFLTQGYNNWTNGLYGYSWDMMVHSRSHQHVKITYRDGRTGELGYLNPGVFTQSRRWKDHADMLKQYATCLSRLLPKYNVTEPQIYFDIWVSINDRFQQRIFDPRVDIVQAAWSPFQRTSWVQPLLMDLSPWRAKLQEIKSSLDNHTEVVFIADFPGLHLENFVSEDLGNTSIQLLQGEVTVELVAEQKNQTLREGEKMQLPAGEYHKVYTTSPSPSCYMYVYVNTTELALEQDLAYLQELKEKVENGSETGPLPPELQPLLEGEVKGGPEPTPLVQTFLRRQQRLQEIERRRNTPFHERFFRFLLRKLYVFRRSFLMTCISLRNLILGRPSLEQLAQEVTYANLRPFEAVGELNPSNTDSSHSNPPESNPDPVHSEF
UniProt Q92917: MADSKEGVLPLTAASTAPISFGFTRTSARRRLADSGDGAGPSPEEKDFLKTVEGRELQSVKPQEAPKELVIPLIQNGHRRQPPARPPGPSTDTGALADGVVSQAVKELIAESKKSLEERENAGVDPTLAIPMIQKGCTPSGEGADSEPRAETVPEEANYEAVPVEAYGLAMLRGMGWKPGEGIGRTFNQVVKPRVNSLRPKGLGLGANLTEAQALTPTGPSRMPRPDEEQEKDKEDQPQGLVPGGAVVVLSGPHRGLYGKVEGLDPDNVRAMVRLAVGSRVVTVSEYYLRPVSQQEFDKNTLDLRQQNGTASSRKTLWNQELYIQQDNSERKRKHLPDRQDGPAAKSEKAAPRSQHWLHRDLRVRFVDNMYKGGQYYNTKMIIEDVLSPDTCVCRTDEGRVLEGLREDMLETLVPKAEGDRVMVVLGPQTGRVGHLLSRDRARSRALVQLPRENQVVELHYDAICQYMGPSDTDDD
UniProt P36915, whole entry, looked up: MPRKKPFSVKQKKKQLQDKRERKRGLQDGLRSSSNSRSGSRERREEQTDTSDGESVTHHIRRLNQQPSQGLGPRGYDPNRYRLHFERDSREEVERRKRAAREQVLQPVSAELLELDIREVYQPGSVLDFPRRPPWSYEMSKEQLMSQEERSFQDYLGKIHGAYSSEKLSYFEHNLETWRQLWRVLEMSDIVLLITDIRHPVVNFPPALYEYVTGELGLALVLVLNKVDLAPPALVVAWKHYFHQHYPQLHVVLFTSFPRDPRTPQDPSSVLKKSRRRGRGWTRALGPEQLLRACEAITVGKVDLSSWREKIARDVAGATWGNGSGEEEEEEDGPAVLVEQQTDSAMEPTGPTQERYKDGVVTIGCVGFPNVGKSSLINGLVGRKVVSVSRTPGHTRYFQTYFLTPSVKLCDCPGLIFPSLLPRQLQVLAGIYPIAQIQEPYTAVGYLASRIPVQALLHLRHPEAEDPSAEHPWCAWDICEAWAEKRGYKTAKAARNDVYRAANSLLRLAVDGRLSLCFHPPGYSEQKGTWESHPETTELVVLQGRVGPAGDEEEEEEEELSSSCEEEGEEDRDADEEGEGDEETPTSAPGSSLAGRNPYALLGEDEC
UniProt B7ZAQ6: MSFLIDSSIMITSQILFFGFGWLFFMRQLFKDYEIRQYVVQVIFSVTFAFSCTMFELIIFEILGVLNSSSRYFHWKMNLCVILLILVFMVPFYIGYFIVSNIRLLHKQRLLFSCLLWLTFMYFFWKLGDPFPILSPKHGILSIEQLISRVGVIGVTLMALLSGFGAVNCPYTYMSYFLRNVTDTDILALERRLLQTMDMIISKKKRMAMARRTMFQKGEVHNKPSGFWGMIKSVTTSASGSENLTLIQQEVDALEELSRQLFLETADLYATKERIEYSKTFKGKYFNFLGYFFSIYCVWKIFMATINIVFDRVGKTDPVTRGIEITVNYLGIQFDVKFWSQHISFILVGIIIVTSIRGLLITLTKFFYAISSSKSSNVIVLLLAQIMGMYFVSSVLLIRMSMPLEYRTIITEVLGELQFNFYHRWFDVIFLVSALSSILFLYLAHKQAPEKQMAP
UniProt Q5T3I0: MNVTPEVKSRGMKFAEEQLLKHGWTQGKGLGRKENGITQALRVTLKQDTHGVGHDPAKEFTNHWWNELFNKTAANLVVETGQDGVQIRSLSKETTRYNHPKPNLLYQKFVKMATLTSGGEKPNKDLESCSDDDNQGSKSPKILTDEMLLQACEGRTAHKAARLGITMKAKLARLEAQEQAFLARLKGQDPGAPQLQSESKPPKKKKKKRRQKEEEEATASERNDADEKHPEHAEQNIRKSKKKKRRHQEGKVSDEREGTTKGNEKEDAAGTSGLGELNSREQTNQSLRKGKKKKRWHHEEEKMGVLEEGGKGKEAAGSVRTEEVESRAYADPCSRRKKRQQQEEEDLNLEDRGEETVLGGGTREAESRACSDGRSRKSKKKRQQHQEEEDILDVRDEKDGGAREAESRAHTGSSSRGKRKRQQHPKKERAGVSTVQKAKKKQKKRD
UniProt P46926: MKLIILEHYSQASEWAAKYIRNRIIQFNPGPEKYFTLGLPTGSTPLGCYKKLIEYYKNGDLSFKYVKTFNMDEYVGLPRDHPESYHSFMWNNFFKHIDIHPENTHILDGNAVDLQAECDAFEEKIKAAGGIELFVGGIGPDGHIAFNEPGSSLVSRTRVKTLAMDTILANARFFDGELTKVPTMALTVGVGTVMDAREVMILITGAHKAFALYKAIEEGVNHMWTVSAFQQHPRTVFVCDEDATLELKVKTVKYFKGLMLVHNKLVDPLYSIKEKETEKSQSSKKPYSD
UniProt Q96EK6: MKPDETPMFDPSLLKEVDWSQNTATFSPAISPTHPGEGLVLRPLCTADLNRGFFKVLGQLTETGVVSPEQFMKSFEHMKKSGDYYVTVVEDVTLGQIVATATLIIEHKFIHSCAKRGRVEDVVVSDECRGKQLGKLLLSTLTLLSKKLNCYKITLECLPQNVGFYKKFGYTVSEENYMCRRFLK
UniProt Q9UJ14: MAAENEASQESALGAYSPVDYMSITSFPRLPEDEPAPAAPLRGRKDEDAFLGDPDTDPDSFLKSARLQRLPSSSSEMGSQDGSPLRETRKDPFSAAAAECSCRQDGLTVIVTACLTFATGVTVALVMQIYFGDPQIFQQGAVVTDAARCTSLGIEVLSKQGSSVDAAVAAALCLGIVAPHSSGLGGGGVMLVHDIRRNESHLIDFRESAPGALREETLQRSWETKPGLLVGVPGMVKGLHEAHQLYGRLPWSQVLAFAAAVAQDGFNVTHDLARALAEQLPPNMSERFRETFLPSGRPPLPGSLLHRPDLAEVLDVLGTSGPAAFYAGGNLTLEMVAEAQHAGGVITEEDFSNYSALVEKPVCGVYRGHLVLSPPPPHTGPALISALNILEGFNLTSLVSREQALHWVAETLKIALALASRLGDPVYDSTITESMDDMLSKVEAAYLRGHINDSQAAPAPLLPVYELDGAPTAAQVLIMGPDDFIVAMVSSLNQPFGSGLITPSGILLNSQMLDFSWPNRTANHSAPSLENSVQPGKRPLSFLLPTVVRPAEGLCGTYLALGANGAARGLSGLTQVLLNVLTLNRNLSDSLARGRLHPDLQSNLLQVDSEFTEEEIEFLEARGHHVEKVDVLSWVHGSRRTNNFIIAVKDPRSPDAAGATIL

How the values were obtained:
Assay in all cases: log2 fold change, soluble protein after heating vs DMSO (PISA); higher = thermal stabilisation; K562 lysate, 10 uM; active = over 0.2 and 3.5 SD of the protein, either way, in both replicates (recomputed)
alvocidib = compound: CN1CC[C@H](c2c(O)cc(O)c3c(=O)cc(-c4ccccc4Cl)oc23)[C@H](O)C1 [alvocidib]
In short: (§1)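 Pellets of K562 cells were dounce-homogenised in PBS pH 7.4 with 1 mM MgCl2, and the crude extract was held at 1 mg/mL protein for a 30 min treatment with 10 μM compound. Aliquots were heated for 3 min over 48°C-58°C and pooled before NP-40 was added to 0.5% at 4°C. The supernatant from 21,000xg for 90 min was quantified by TMTpro 16plex LC-MS/MS with channel sums equalised. Values are reported from duplicates as log-two fold change in thermal stability relative to solvent controls.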

Tubastatin A = compound: CN1CCc2c(c3ccccc3n2Cc2ccc(C(=O)NO)cc2)C1 [Tubastatin A]
In short: as §1

[1] = compound: CNC(=O)C1=CC=CC=C1NC2=NC(=NC=C2Cl)NC3=C(C=C(C=C3)N4CCOCC4)OC
In short: as §1

defactinib = compound: CNC(=O)c1ccc(Nc2ncc(C(F)(F)F)c(NCc3nccnc3N(C)S(C)(=O)=O)n2)cc1 [defactinib]
In short: as §1

[2] = compound: CNc1nc(-c2ccc3c(N)n[nH]c3c2)cc(N2C[C@@H](C(=O)NC3CCCCC3)CC[C@H]2C)n1
In short: as §1

encorafenib = compound: COC(=O)N[C@@H](C)CNc1nccc(-c2cn(C(C)C)nc2-c2cc(Cl)cc(NS(C)(=O)=O)c2F)n1 [encorafenib]
In short: as §1

[3] = compound: COC(=O)[C@H](CCSC)NC(=O)C1=C(C=C(C=C1)NC[C@H](CS)N)C2=CC=CC=C2
In short: as §1

alisertib = compound: COc1cc(Nc2ncc3c(n2)-c2ccc(Cl)cc2C(c2c(F)cccc2OC)=NC3)ccc1C(=O)O [alisertib]
In short: as §1

[4] = compound: COc1cc2nc(-c3cc(F)ccc3O)nc(N[C@@H]3CNC[C@H]3C(C)(C)O)c2cc1OC
In short: as §1

gefitinib = compound: COc1cc2ncnc(Nc3ccc(F)c(Cl)c3)c2cc1OCCCN1CCOCC1 [gefitinib]
In short: as §1

lapatinib = compound: CS(=O)(=O)CCNCc1ccc(-c2ccc3ncnc(Nc4ccc(OCc5cccc(F)c5)c(Cl)c4)c3c2)o1 [lapatinib]
In short: as §1

pictilisib = compound: CS(=O)(=O)N1CCN(Cc2cc3nc(-c4cccc5[nH]ncc45)nc(N4CCOCC4)c3s2)CC1 [pictilisib]
In short: as §1

crizotinib = compound: C[C@@H](Oc1cc(-c2cnn(C3CCNCC3)c2)cnc1N)c1c(Cl)ccc(F)c1Cl [crizotinib]
In short: as §1

[5] = compound: C[C@H](C1=CC=C(C=C1)C(=O)NC2=C3C=CNC3=NC=C2)N
In short: as §1

duvelisib = compound: C[C@H](Nc1ncnc2nc[nH]c12)c1cc2cccc(Cl)c2c(=O)n1-c1ccccc1 [duvelisib]
In short: as §1

gandotinib = compound: Cc1cc(Nc2cc(CN3CCOCC3)c3nc(C)c(Cc4ccc(Cl)cc4F)n3n2)n[nH]1 [gandotinib]
In short: as §1

tozasertib = compound: Cc1cc(Nc2cc(N3CCN(C)CC3)nc(Sc3ccc(NC(=O)C4CC4)cc3)n2)n[nH]1 [tozasertib]
In short: as §1

doramapimod = compound: Cc1ccc(-n2nc(C(C)(C)C)cc2NC(=O)Nc2ccc(OCCN3CCOCC3)c3ccccc23)cc1 [doramapimod]
In short: as §1

bafetinib = compound: Cc1ccc(NC(=O)c2ccc(CN3CC[C@H](N(C)C)C3)c(C(F)(F)F)c2)cc1Nc1nccc(-c2cncnc2)n1 [bafetinib]
In short: as §1

[6] = compound: Cc1cccc(CC(=O)N2CCc3c2ccc(-c2cn(C)c4ncnc(N)c24)c3F)n1
In short: as §1

Measured: log2 fold change

GOLGA4 isoform 5 (UniProt Q13439)
inactive: alvocidib -0.07 | Tubastatin A -0.018 | [1] 0.034 | defactinib -0.006 | [2] 0.012 | encorafenib 0.016 | [3] 0.012 | alisertib -0.028 | [4] -0.013 | gefitinib 0.001 | lapatinib -0.005 | pictilisib -0.025 | crizotinib -0.016 | [5] -0.1 | duvelisib 0.016 | gandotinib 0.008 | tozasertib 0.004 | doramapimod 0.011 | bafetinib -0.034 | [6] 0.057

GOPC (UniProt Q9HD26)
inactive: alvocidib 0.003 | Tubastatin A -0.125 | [1] 0.06 | defactinib 0.026 | [2] -0.009 | encorafenib 0.008 | [3] 0.073 | alisertib 0 | [4] -0.025 | gefitinib 0.01 | lapatinib -0.037 | pictilisib -0.013 | crizotinib 0.014 | [5] 0.01 | duvelisib -0.003 | gandotinib -0.043 | tozasertib -0.037 | doramapimod 0.14 | bafetinib -0.013 | [6] 0.011

GGPS1 (UniProt O95749)
inactive: alvocidib 0.013 | Tubastatin A 0.054 | [1] 0.007 | defactinib -0.007 | [2] 0.007 | encorafenib -0.017 | [3] -0.044 | alisertib 0.02 | [4] 0.002 | gefitinib -0.011 | lapatinib 0.019 | pictilisib 0.004 | crizotinib 0.035 | [5] -0.003 | duvelisib -0.028 | gandotinib 0.027 | tozasertib 0.038 | doramapimod 0.011 | bafetinib 0.036 | [6] -0.024

GNB1 (UniProt P62873)
inactive: alvocidib -0.095 | Tubastatin A 0.029 | [1] -0.023 | defactinib -0.028 | [2] -0.011 | encorafenib 0.007 | [3] 0.003 | alisertib -0.023 | [4] -0.011 | gefitinib -0.128 | lapatinib 0.054 | pictilisib -0.022 | crizotinib -0.106 | [5] -0.114 | duvelisib 0.003 | gandotinib 0.04 | tozasertib -0.023 | doramapimod 0.079 | bafetinib 0.123 | [6] 0.04

GGCX (UniProt P38435)
inactive: alvocidib 0.054 | Tubastatin A -0.097 | [1] -0.033 | defactinib 0.228 | [2] -0.014 | encorafenib 0.074 | [3] -0.012 | alisertib 0.006 | [4] 0.018 | gefitinib 0.036 | lapatinib -0.159 | pictilisib 0.024 | crizotinib -0.017 | [5] 0.089 | duvelisib 0.008 | gandotinib -0.232 | tozasertib 0.093 | doramapimod -0.051 | bafetinib -0.027 | [6] 0.039

GNAQ (UniProt P50148)
inactive: alvocidib 0.009 | Tubastatin A -0.014 | [1] 0.015 | defactinib 0.026 | [2] -0.064 | encorafenib -0.038 | [3] 0.028 | alisertib -0.081 | [4] -0.008 | gefitinib 0.072 | lapatinib -0.01 | pictilisib -0.109 | crizotinib 0.036 | [5] -0.003 | duvelisib 0.028 | gandotinib 0.018 | tozasertib -0.003 | doramapimod -0.071 | bafetinib -0.003 | [6] 0.018

GPKOW (UniProt Q92917)
inactive: alvocidib 0.008 | Tubastatin A -0.078 | [1] 0.006 | defactinib 0 | [2] -0.016 | encorafenib 0.02 | [3] -0.083 | alisertib 0.031 | [4] 0.011 | gefitinib 0 | lapatinib 0 | pictilisib 0.013 | crizotinib 0.028 | [5] 0.102 | duvelisib -0.029 | gandotinib -0.026 | tozasertib 0 | doramapimod 0.002 | bafetinib -0.03 | [6] -0.07

GHDC (UniProt Q8N2G8)
inactive: alvocidib -0.031 | Tubastatin A -0.084 | [1] 0.027 | defactinib 0.134 | [2] 0.094 | encorafenib -0.181 | [3] -0.02 | alisertib 0.064 | [4] -0.12 | gefitinib 0.087 | lapatinib 0.01 | pictilisib -0.057 | crizotinib -0.185 | [5] -0.018 | duvelisib -0.014 | gandotinib 0.061 | tozasertib 0.106 | doramapimod -0.037 | bafetinib -0.079 | [6] 0.005

GNL1 (UniProt P36915)
inactive: alvocidib 0.032 | Tubastatin A -0.036 | [1] 0.004 | defactinib -0.02 | [2] -0.022 | encorafenib 0.019 | [3] -0.029 | alisertib 0.011 | [4] -0.011 | gefitinib -0.03 | lapatinib -0.037 | pictilisib -0.031 | crizotinib -0.056 | [5] 0.031 | duvelisib -0.017 | gandotinib -0.087 | tozasertib 0.021 | doramapimod -0.015 | bafetinib 0.009 | [6] 0.028

GPR89A (UniProt B7ZAQ6)
inactive: alvocidib 0.02 | Tubastatin A -0.01 | [1] -0.202 | defactinib -0.023 | [2] -0.092 | encorafenib 0.016 | [3] -0.09 | alisertib 0.04 | [4] -0.151 | gefitinib 0 | lapatinib -0.168 | pictilisib 0.028 | crizotinib -0.105 | [5] -0.003 | duvelisib -0.047 | gandotinib -0.285 | tozasertib 0.069 | doramapimod 0.018 | bafetinib -0.027 | [6] 0.088

GPATCH4 isoform 3 (UniProt Q5T3I0)
inactive: alvocidib 0.003 | Tubastatin A -0.152 | [1] 0.128 | defactinib 0.035 | [2] 0.047 | encorafenib 0.18 | [3] -0.019 | alisertib 0.029 | [4] -0.059 | gefitinib 0.043 | lapatinib -0.079 | pictilisib 0.128 | crizotinib -0.032 | [5] 0.084 | duvelisib -0.063 | gandotinib -0.03 | tozasertib 0.029 | doramapimod 0.112 | bafetinib -0.045 | [6] -0.021

GGNBP2 (UniProt Q9H3C7)
inactive: alvocidib -0.117 | Tubastatin A -0.128 | [1] 0.078 | defactinib 0.039 | [2] -0.034 | encorafenib -0.02 | [3] 0.047 | alisertib -0.034 | [4] 0.046 | gefitinib -0.019 | lapatinib 0.013 | pictilisib -0.017 | crizotinib -0.037 | [5] -0.029 | duvelisib 0.008 | gandotinib -0.082 | tozasertib -0.007 | doramapimod 0.005 | bafetinib -0.032 | [6] 0.02

GMDS (UniProt O60547)
inactive: alvocidib 0.036 | Tubastatin A -0.057 | [1] -0.017 | defactinib 0.042 | [2] 0.003 | encorafenib -0.059 | [3] 0.123 | alisertib 0.016 | [4] 0.023 | gefitinib -0.012 | lapatinib -0.019 | pictilisib -0.035 | crizotinib -0.01 | [5] 0.004 | duvelisib 0.012 | gandotinib -0.013 | tozasertib -0.016 | doramapimod 0.018 | bafetinib 0.001 | [6] -0.021

Copied from the results shown (4 entries):
GPKOW (UniProt Q92917)
inactive: alvocidib 0.008 | Tubastatin A -0.078 | [1] 0.006 | defactinib 0 | [2] -0.016 | encorafenib 0.02 | [3] -0.083 | alisertib 0.031 | [4] 0.011 | gefitinib 0 | lapatinib 0 | pictilisib 0.013 | crizotinib 0.028 | [5] 0.102 | duvelisib -0.029 | gandotinib -0.026 | tozasertib 0 | doramapimod 0.002 | bafetinib -0.03 | [6] -0.07

GHDC (UniProt Q8N2G8)
inactive: alvocidib -0.031 | Tubastatin A -0.084 | [1] 0.027 | defactinib 0.134 | [2] 0.094 | encorafenib -0.181 | [3] -0.02 | alisertib 0.064 | [4] -0.12 | gefitinib 0.087 | lapatinib 0.01 | pictilisib -0.057 | crizotinib -0.185 | [5] -0.018 | duvelisib -0.014 | gandotinib 0.061 | tozasertib 0.106 | doramapimod -0.037 | bafetinib -0.079 | [6] 0.005

GNL1 (UniProt P36915)
inactive: alvocidib 0.032 | Tubastatin A -0.036 | [1] 0.004 | defactinib -0.02 | [2] -0.022 | encorafenib 0.019 | [3] -0.029 | alisertib 0.011 | [4] -0.011 | gefitinib -0.03 | lapatinib -0.037 | pictilisib -0.031 | crizotinib -0.056 | [5] 0.031 | duvelisib -0.017 | gandotinib -0.087 | tozasertib 0.021 | doramapimod -0.015 | bafetinib 0.009 | [6] 0.028

GPR89A (UniProt B7ZAQ6)
inactive: alvocidib 0.02 | Tubastatin A -0.01 | [1] -0.202 | defactinib -0.023 | [2] -0.092 | encorafenib 0.016 | [3] -0.09 | alisertib 0.04 | [4] -0.151 | gefitinib 0 | lapatinib -0.168 | pictilisib 0.028 | crizotinib -0.105 | [5] -0.003 | duvelisib -0.047 | gandotinib -0.285 | tozasertib 0.069 | doramapimod 0.018 | bafetinib -0.027 | [6] 0.088

Next part.

GNPDA1 (UniProt P46926)
inactive: alvocidib -0.02 | Tubastatin A 0.032 | [1] -0.001 | defactinib -0.003 | [2] 0.059 | encorafenib 0.017 | [3] -0.053 | alisertib 0.001 | [4] -0.012 | gefitinib 0.01 | lapatinib -0.005 | pictilisib -0.006 | crizotinib 0.035 | [5] -0.056 | duvelisib -0.009 | gandotinib 0.012 | tozasertib 0 | doramapimod -0.02 | bafetinib -0.013 | [6] -0.005

GNPNAT1 (UniProt Q96EK6)
inactive: alvocidib 0.005 | Tubastatin A 0.006 | [1] 0.048 | defactinib 0.02 | [2] 0.013 | encorafenib -0.014 | [3] -0.046 | alisertib -0.003 | [4] -0.037 | gefitinib -0.097 | lapatinib 0.022 | pictilisib 0.035 | crizotinib -0.005 | [5] 0.023 | duvelisib -0.002 | gandotinib -0.038 | tozasertib 0.073 | doramapimod 0.018 | bafetinib 0.023 | [6] -0.094

GGT7 (UniProt Q9UJ14)
inactive: alvocidib -0.013 | Tubastatin A 0.076 | [1] 0.008 | defactinib 0.066 | [2] 0.079 | encorafenib 0.078 | [3] -0.065 | alisertib -0.015 | [4] 0.044 | gefitinib 0.055 | lapatinib -0.024 | pictilisib -0.007 | crizotinib 0.01 | [5] 0.068 | duvelisib 0.011 | gandotinib 0.033 | tozasertib -0.03 | doramapimod -0.054 | bafetinib -0.09 | [6] 0.042
